The supplement of paper PMC10849652
This is one part of the list.

Chains of the proteins cited; added tags and fusions are not shown. Lines headed by an entry give the natural chain unless they say otherwise; changes in a name come on top.
UniProt Q9BV20: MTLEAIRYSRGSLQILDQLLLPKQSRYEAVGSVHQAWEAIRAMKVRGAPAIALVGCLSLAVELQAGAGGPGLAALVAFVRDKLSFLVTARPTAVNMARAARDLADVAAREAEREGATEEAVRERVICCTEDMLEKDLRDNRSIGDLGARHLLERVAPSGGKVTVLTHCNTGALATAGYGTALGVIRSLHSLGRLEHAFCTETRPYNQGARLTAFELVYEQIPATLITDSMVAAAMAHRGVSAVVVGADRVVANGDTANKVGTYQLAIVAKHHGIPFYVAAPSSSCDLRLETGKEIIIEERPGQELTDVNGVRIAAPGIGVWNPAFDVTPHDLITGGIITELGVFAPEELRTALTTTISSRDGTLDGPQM
UniProt Q9HAP2: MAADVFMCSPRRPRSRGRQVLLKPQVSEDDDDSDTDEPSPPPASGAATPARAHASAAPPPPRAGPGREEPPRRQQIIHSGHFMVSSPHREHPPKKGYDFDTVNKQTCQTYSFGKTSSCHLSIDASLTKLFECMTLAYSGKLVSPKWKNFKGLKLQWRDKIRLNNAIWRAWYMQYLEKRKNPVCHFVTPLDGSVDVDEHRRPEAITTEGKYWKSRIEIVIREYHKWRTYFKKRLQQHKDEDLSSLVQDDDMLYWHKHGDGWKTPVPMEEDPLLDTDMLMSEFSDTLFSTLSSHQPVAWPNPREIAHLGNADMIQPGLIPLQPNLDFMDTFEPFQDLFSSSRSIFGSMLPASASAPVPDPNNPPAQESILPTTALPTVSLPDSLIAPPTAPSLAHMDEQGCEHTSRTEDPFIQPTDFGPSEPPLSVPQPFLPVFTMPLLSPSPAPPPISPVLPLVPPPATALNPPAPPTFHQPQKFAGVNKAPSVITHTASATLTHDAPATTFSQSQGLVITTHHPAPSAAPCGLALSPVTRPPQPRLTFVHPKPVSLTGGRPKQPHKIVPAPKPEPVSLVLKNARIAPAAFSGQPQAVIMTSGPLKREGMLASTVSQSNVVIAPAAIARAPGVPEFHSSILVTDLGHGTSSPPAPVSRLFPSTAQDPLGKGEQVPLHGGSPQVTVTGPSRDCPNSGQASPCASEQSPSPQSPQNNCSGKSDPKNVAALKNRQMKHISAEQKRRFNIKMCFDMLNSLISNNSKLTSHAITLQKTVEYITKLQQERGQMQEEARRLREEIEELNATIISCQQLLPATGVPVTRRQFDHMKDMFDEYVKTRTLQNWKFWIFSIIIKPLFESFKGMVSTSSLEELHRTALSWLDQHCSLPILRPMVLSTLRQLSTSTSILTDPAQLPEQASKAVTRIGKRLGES
UniProt Q14165: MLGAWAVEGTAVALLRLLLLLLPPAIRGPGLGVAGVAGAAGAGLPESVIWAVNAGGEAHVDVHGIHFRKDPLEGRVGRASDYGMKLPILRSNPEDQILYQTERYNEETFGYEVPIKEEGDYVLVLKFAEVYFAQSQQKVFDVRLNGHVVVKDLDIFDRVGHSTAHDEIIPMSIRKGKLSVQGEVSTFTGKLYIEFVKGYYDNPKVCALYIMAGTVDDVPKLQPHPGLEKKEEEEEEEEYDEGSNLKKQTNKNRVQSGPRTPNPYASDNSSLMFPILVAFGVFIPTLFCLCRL
UniProt Q7Z3K6: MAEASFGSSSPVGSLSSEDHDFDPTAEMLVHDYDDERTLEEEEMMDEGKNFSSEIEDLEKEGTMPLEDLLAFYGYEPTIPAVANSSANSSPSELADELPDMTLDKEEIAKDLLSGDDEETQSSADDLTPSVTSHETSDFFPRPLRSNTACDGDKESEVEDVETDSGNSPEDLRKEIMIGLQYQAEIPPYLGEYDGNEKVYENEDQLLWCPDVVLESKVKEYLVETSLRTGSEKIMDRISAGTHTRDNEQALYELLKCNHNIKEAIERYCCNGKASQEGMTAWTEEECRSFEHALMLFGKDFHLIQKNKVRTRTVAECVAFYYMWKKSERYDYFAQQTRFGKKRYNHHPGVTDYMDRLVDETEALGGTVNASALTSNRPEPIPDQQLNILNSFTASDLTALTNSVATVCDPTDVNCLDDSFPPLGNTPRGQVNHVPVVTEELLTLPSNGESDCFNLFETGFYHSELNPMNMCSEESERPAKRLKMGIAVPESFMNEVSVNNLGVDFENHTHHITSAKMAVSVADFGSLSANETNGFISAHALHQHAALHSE
UniProt Q95460, whole entry, looked up: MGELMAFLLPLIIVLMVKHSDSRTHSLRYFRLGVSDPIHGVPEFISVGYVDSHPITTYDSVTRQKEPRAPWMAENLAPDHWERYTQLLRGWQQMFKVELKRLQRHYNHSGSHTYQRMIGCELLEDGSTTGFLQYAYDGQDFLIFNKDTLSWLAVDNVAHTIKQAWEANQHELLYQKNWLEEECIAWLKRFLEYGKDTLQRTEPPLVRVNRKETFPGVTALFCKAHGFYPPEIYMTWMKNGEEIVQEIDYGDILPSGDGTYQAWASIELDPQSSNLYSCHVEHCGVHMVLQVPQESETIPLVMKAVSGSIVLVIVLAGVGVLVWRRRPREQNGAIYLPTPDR
UniProt Q8N344: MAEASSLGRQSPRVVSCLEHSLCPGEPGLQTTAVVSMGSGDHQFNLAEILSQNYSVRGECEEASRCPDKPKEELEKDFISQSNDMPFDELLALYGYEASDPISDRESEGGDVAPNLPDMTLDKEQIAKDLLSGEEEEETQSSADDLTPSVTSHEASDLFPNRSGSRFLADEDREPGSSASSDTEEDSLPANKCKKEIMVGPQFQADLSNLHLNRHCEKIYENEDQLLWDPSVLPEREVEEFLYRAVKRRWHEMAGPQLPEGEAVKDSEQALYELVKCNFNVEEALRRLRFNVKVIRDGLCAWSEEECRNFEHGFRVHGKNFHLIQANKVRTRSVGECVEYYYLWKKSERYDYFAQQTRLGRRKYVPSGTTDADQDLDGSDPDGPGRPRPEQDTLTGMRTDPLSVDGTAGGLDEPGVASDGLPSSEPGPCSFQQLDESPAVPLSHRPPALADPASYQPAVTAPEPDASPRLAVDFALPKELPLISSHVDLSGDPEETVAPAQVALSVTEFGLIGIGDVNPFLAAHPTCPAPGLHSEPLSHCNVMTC

Experiments:
Experiment in all cases: log2 fold change, soluble protein after heating vs DMSO (PISA); higher = thermal stabilisation; K562 cells, 10 uM, 30 min; active = over 0.2 and 3.5 SD of the protein, either way, in both replicates (recomputed)
[1] = compound: Cc1ccc(NC(=O)c2ccc(CN3CC[C@H](N(C)C)C3)c(C(F)(F)F)c2)cc1Nc1nccc(-c2cncnc2)n1 [bafetinib]
Outline: (§1)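 K562 cells at 2×10^6 cells/mL were given 10 μM compound for 30 min. Aliquots then went through 3 min of heating across 48°C-58°C, were pooled, and were extracted in PBS with 0.5% NP-40 at 4°C, and the supernatant after 21,000xg for 90 min was quantified by TMTpro 16plex LC-MS/MS with channel sums equalised. Thermal stability relative to control samples, from duplicates, is given as log2 fold change.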

[2] = compound: Cc1cccc(CC(=O)N2CCc3c2ccc(-c2cn(C)c4ncnc(N)c24)c3F)n1
Outline: as §1

[3] = compound: Cc1cn(-c2cc(NC(=O)c3ccc(C)c(Nc4nccc(-c5cccnc5)n4)c3)cc(C(F)(F)F)c2)cn1 [nilotinib]
Outline: as §1

[4] = compound: Cc1nc(Nc2n[nH]c3c2CN(C(=O)N[C@H](CN(C)C)c2ccccc2)C3(C)C)c2sccc2n1
Outline: as §1

[5] = compound: Cc1nc(Nc2ncc(C(=O)Nc3c(C)cccc3Cl)s2)cc(N2CCN(CCO)CC2)n1 [dasatinib]
Outline: as §1

[6] = compound: Cc1ncc(-c2ccnc(Nc3ccc(S(C)(=O)=O)cc3)n2)n1C(C)C
Outline: as §1

[7] = compound: Cn1cc(-c2ccc3c(c2)CCN3C(=O)Cc2cccc(C(F)(F)F)c2)c2c(N)ncnc21
Outline: as §1

[8] = compound: Cn1cc(-c2ccc3nnc(C(F)(F)c4ccc5ncccc5c4)n3n2)cn1
Outline: as §1

[9] = compound: Cn1cncc1[C@@](N)(c1ccc(Cl)cc1)c1ccc2c(c1)c(-c1cccc(Cl)c1)cc(=O)n2C [tipifarnib]
Outline: as §1

[10] = compound: FC(F)(F)c1ccc(/C=C/c2nc(COc3ccc(CCCCn4ccnn4)cc3)co2)cc1 [mubritinib]
Outline: as §1

[11] = compound: NC(=O)Nc1cc(-c2cccc(F)c2)sc1C(=O)N[C@H]1CCCNC1
Outline: as §1

[12] = compound: NC(=O)c1cnc(N[C@@H]2CCCC[C@@H]2N)nc1Nc1cccc(-n2nccn2)c1
Outline: as §1

[13] = compound: NC1(c2ccc(-c3nc4ccn5c(=O)[nH]nc5c4cc3-c3ccccc3)cc2)CCC1
Outline: as §1

[14] = compound: NCC(=O)Nc1ccc(-n2nc(C(F)(F)F)cc2-c2ccc3c(ccc4ccccc43)c2)cc1
Outline: as §1

[15] = compound: Nc1ccccc1NC(=O)c1ccc(CNC(=O)OCc2cccnc2)cc1 [entinostat]
Outline: as §1

[16] = compound: O=C(CCCCCCC(=O)Nc1ccccc1)NO [vorinostat]
Outline: as §1

[17] = compound: O=C(CCCCCCNC(=O)c1cnc(N(c2ccccc2)c2ccccc2Cl)nc1)NO [citarinostat]
Outline: as §1

[18] = compound: O=C(O)c1ccc2c(c1)nc(Nc1cccc(Cl)c1)c1ccncc12 [silmitasertib]
Outline: as §1

[19] = compound: O=C1NC(=O)C(c2cnc3ccccn23)=C1c1cn2c3c(cc(F)cc13)CN(C(=O)N1CCCCC1)CC2
Outline: as §1

[20] = compound: c1cc(OCCN2CCCCC2)cc(-c2n[nH]c3ccc(-c4nnc[nH]4)cc23)c1
Outline: as §1

Measured: log2 fold change

MRI1 (UniProt Q9BV20)
inactive: [1] -0.007 | [2] -0.057 | [3] 0.043 | [4] 0.002 | [5] -0.016 | [6] 0 | [7] 0.036 | [8] 0.014 | [9] -0.027 | [10] 0.031 | [11] -0.018 | [12] -0.024 | [13] -0.021 | [14] -0.062 | [15] 0 | [16] -0.045 | [17] 0.012 | [18] 0.032 | [19] -0.033 | [20] 0.006

MLXIP (UniProt Q9HAP2)
inactive: [1] 0.357 | [2] -0.067 | [3] -0.007 | [4] -0.018 | [5] -0.071 | [6] -0.072 | [7] 0.039 | [8] 0.068 | [9] -0.153 | [10] -0.011 | [11] 0.122 | [12] -0.042 | [13] 0.018 | [14] 0.12 | [15] 0.083 | [16] 0.055 | [18] -0.059 | [19] 0.077

MIEF1 (UniProt L0R8F8)
inactive: [1] -0.077 | [2] -0.001 | [3] -0.1 | [4] 0.067 | [5] 0.001 | [6] -0.093 | [7] 0.022 | [8] -0.053 | [9] -0.03 | [10] -0.039 | [11] 0.085 | [12] 0.094 | [13] 0.047 | [14] 0.002 | [15] 0.007 | [16] -0.012 | [17] 0.039 | [18] -0.021 | [19] -0.063 | [20] -0.056

MLEC (UniProt Q14165)
inactive: [1] -0.034 | [2] 0.008 | [3] -0.026 | [4] 0.042 | [5] 0.032 | [6] -0.004 | [7] -0.03 | [8] 0.032 | [9] 0.038 | [10] -0.011 | [11] -0.002 | [12] -0.01 | [13] -0.033 | [14] 0.015 | [15] 0.013 | [16] -0.029 | [17] -0.004 | [18] 0.039 | [19] -0.037 | [20] -0.051

MKKS (UniProt Q9HB66)
inactive: [1] -0.029 | [2] -0.053 | [3] 0.042 | [4] -0.006 | [5] 0.012 | [6] -0.072 | [7] -0.031 | [10] 0.043 | [11] -0.039 | [12] 0.125 | [13] 0.002 | [14] -0.128 | [15] 0.041 | [16] -0.164 | [17] 0 | [18] 0.031 | [19] -0.177 | [20] -0.107

MIER3 isoform 2 (UniProt Q7Z3K6)
inactive: [14] 0.049

MR1 (UniProt Q95460)
inactive: [10] 0.054 | [13] -0.169 | [18] 0.063 | [19] -0.022

MIER2 (UniProt Q8N344)
inactive: [5] 0.012 | [7] -0.12 | [12] 0.229 | [14] -0.113 | [19] 0.024
